# Laboratory results taken from PubChem BioAssay AID1508600 (Functional Genomics Laboratory (NCATS/FGL), 2020).
# The whole screen tested about 53,000 sequences, of which about 3,700 (7%) were called active.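 Rule for the calls: active = gene knockdowns whose robust z-score for IL-1 alpha signal is at least 2 or at most -2, so actives lie on both sides; inactive = the rest.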 The list shows a part of the results.
# Assay: Components of the Cytosolic LPS Sensing Pathway: Gene Identification via Genome-wide siRNA Screen;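 note: robust z of the log signal after scaling to non-targeting control siRNA wells of the plate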
# Conditions: RAW264.7 macrophages, IL-1a HTRF, actives lie on both sides, screened at 100 nM (by protocol), cells primed 5 h with Pam3CSK4 first
# In short: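 Supernatant IL-1a by HTRF from RAW264.7 cells primed with Pam3CSK4 (5 hours) and transfected with LipidA (24 hour) after 48h siRNA knockdown at 100 nM; cell viability checked with CellTiter-Glo.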
row,Sequence,z-score
1,CGAGAUUUGGAAUGCCCUGTT against Fez2,inactive: 0.25
2,GGUCAUAGAAGGGUUCAGCTT against Sbsn,inactive: 0.322
3,GGAAGAAUUUCGUACUAUGTT against Papolb,inactive: 0.858
4,GGACCCAGCAGUCAAGAUATT against 9930038B18Rik,inactive: 0.0416
5,GCUACCCAUGAGCUUUCGATT against S100a3,inactive: 0.495
6,CCACCUUCCAUGGUCAGUATT against Xpo4,inactive: -0.741
7,GGUGUUCGUUUCAUCUACATT against Hnrnph2,inactive: 0.299
8,GGCAGCACCAUCGUCUAAUTT against 4930432E11Rik,inactive: 0.622
9,GGACCAUGAGACGAUGGGATT against Dysf,inactive: 0.167
10,GCCAAUGUGGAAUCAAAGGTT against Ms4a6c,inactive: 1.83
11,CCAGUGCAGGACCUCAUUUTT against Sod1,active: -2.06
12,GGGAAAGGAAACAUGGAACTT against Apom,inactive: 1.26
13,GGUUGAAUCCUAAGAAUGUTT against Edc3,inactive: 0.39
14,GGGCCUUACUCAAAUCCCUTT against Fbln5,inactive: -1.54
15,CGUGUAGCAAUGAGAUAUUTT against Trpc5,inactive: 0.162
16,GCCAAGACAUCAGAAGGAUTT against Nrxn1,inactive: 0.202
17,UCUAGAAUGAGGGUCUUUUTT against Il19,inactive: -0.0966
18,GCUAUGAAAAGUGUCUGCCTT against Cul4b,inactive: 0.934
19,GCAGCUAAUUAAGUCAAGGTT against Barhl1,inactive: -1.32
20,GCAACAAAUCAGAUUUGACTT against Dhdh,inactive: 0.246
21,GGUGAAAUUGCUCAGAUAATT against Narf,inactive: 0.387
22,GGUAUUUGGAAUCCAAUUGTT against Maged2,inactive: 0.65

row,Sequence,z-score
1,GGAUAAAGAAGGUAUUCUUTT against Mccc1,inactive: -0.891
2,CCUAUCAUGGCAGAAUACUTT against 1300017J02Rik,inactive: -0.307
3,GGAAACAACAACUGUCACATT against Defb40,active: -2.13
4,GCUUUUCGAACAAGAGAAGTT against Ankle2,inactive: 0.0248
5,GCUAAUGACACCACUUUUGTT against Aldh9a1,inactive: -0.379
6,GGGAGUUGACUAGAAGUAATT against Bag1,inactive: -0.493
7,GGCAUGUCUUCACAGGUGATT against Snrk,inactive: 1.29
8,GGCAGAGCCUGGACAAAUATT against Slc6a4,inactive: 0.768
9,GCAAUUGAGUCCAUAUAGCTT against Jtb,inactive: 0.0967
10,GGUAAAACCGACAUUGACCTT against Adgrl1,inactive: 0.51
11,GGCCUUAAAAUACCUUUGATT against Srpx,inactive: 1.12
12,GCAUAUUGAGGAAUUCCUATT against Sh3rf3,inactive: 0.231
13,GCUAAAUUCAGCUGAGGCUTT against Kdm4d,inactive: -0.217
14,GGUGGUGGCUGUGUAUAACTT against Cdh15,inactive: -0.14
15,GGACCAGUUAGUGAAGUGCTT against Rbm43,inactive: -1.2
16,GGAGCUCGUGAAGCUGUUUTT against Stk19,inactive: -1.61
17,CCUUGCAUUACUUCUAAAUTT against Aff2,inactive: 0.29
18,GGGUCCACAUAUAAUUACCTT against Slc36a3,inactive: 1.26
19,GGACAUCUUGCUGCUUCUATT against Srebf1,inactive: 0.0201
20,GGCCAGAGCCUGAAUUCUUTT against Bag4,inactive: 0.336
21,GCCCAUGAGUCAACAGUACTT against Ss18l1,inactive: -1.27
22,GGGAAGUACACAUUGAUUATT against Ndst4,inactive: 0.298

row,Sequence,z-score
1,GGUUCACGAAGAACAUAAATT against Armcx6,inactive: -1.02
2,GGAAUCAGCUAAUGAUUUCTT against Tyw1,inactive: 0.819
3,GAUAAAAUGGGCAUUACCUTT against Olfr666,inactive: -0.721
4,GGCAGCAGAAGCUUAACAATT against Cadps2,inactive: 0.727
5,GGGUUUCAUACCCACUGCUTT against Cntnap1,inactive: -0.00358
6,GGUCCAAAAAUGCAAAGAATT against Agbl2,inactive: 1.83
7,GGUGUUUCGCUUGGAGGUGTT against Star,inactive: -0.381
8,CCGAUACCGGGUAUUUACCTT against Cd3eap,inactive: 0.439
9,GGAAACCACUAUCCACCUUTT against Ubd,inactive: -0.357
10,CCUACUUUAUUAUGUGUCATT against Mmp10,inactive: 0.0258
11,GGAACUUGCCAGAGAUACATT against Gak,inactive: 1.64
12,GCCUUUAGCAAAGUGGUUCTT against Rragd,inactive: 0.259
13,GGACCAAGAACCAGCAAUGTT against Defb6,inactive: -0.69
14,CCAGAUAUGAAGCUGCUCCTT against Rab28,inactive: -0.142
15,GGAGGAGCUGGAGAAAACATT against Psd4,inactive: -0.43
16,GGUGAUUGUCUGGGAUUCCTT against Gnb5,inactive: -0.609
17,GCUACUGGGAAUCUUUCAATT against 5730596B20Rik,inactive: 0.562
18,GGAAGGUUUAUUCUUGGAUTT against Shcbp1,inactive: -1.06
19,GCUUCUACGCGGCUACUUUTT against Elmod3,inactive: -0.0255
20,GGUAAUAUAUGACUCCAGCTT against Prelid3b,inactive: 0.381
21,GCCAACUGGAUAAAUGUCATT against Spdl1,inactive: -1.38
22,GGACAGAUUGUGGAAACCUTT against Ctnnd1,inactive: -0.978

# Two successive records already listed, quoted:
row,Sequence,z-score
11,GGCCUUAAAAUACCUUUGATT against Srpx,inactive: 1.12
12,GCAUAUUGAGGAAUUCCUATT against Sh3rf3,inactive: 0.231

# Remaining list, next part:

row,Sequence,z-score
1,GGACAAGUCCUUUGCUGUGTT against Zmynd8,inactive: -1.35
2,GGAGCCAAGAACUUUUCAGTT against Gorab,inactive: -0.216
3,GGUCUGAGCUGUGAUUACATT against Alkbh2,inactive: -0.183
4,GGUUAAAGACAUGUACUAGTT against 9930022D16Rik,inactive: 1.19
5,GGUUACGUGUUUGUAUCUATT against Higd1a,inactive: -0.395
6,CCGCCAUGUUCAUUGAAGATT against Spns1,inactive: -1.84
7,CGGUUUGCACAAGAAAUGGTT against Svs6,inactive: 0.0401
8,GCGGAGCAGAAUCUUCAUGTT against Olfr613,inactive: 1.57
9,CCUUUAUUCUCUGUAUUUGTT against Obox1,inactive: -0.658
10,GGCUACUCAGCAGAUUGUCTT against Dclre1b,inactive: 0.000573
11,GAGAGCCAUGCAAACUAAGTT against Il19,inactive: 0.422
12,GCAAAUACCGAACUCCCAGTT against Aqp12,inactive: -0.262
13,CGAUGUGCAUUUUAAGUAGTT against Cdk2ap1,inactive: 0.825
14,GGGAGGUGCAAUCAGCUUUTT against Olfr1336,inactive: 0.395
15,GGCUACACCUUACUAGUGGTT against Prr36,inactive: -0.223
16,GGCAAAAUUAAAGCACAGUTT against L3hypdh,inactive: 0.922
17,CCAUCAUAUGAUCACGAAGTT against Cd83,inactive: -0.0915
18,CCAUAUCUCUAAAUGUCAATT against Opa1,inactive: 0.106
19,GGAUGGAGAAAAUGUUAUGTT against Strbp,inactive: -0.00962
20,GGAGAUUCCAGAGUUCUUGTT against Krba1,inactive: 0.426
21,CCGUUUUGAACCAUAAAAATT against Zfp7,inactive: -0.873
22,CCUUCGUAGUCUUGAUGUGTT against Olfr1179,inactive: -0.104

row,Sequence,z-score
1,GGUGAUUGCCCGUUGAUUGTT against Dus4l,inactive: -1.22
2,GCAGUUACGUUAGUUAAUATT against Plekha1,inactive: 1.1
3,GGAGAAACUUUCAAAAGACTT against Trim36,inactive: -0.147
4,GGAGGCUCAACUGUGUUAATT against Tnfrsf4,inactive: -1.01
5,GGAAUAGCAUCACCAGUUGTT against Foxn3,inactive: -1.2
6,GGACACAAUAUGUGAAGUATT against Tasor2,inactive: 0.823
7,GGUGGUUACACAAGGAACATT against Phgdh,inactive: -0.314
8,GGACAGCAGUUUUUACUAGTT against Mllt10,inactive: 0.907
9,CGCAGUGAGGAGUAUGAAGTT against Nin,active: 3.53
10,CCAAGAGCUAUGUUGGUUUTT against Txlna,inactive: -0.0704
11,GGAUAAACAUCAUGAAGCUTT against Scgb1a1,inactive: 0.00401
12,CCAGGAUUACUAUCACAAATT against Ep400,inactive: -1.17
13,GGAACUGGUGUCAUCUACATT against Plin3,inactive: -0.661
14,GGGAGUCCCAGCUUAGUAATT against Pou2f2,inactive: -1.33
15,GGUUGAUCUAAUGAUUGUGTT against Ccdc34,active: 2.5
16,GGGAAAAGAAAGUACCUACTT against Zcchc10,active: 2.26
17,GGGCUUCUUCUGCUAUGACTT against Plppr2,active: -2.2
18,GGAUGUAUGUUAAGAUUGATT against Olfr906,inactive: -1.2
19,GCUUUAAUUGUGAAAGCACTT against Miga1,active: -2.26

# Exported with tabs: part of the list above.
row	Sequence	z-score
14	GGGAGUCCCAGCUUAGUAATT against Pou2f2	inactive: -1.33
15	GGUUGAUCUAAUGAUUGUGTT against Ccdc34	active: 2.5
16	GGGAAAAGAAAGUACCUACTT against Zcchc10	active: 2.26
17	GGGCUUCUUCUGCUAUGACTT against Plppr2	active: -2.2
